Reference: paper PMC2477742
No constants are given. Whether binding was seen depends on the method and setting.

Target: T1, IL-11 receptor alpha chain on beta-TC3 cells (no gp-130) (mouse (endogenous in beta-TC3)) (UniProt Q64385)
T1 sequence: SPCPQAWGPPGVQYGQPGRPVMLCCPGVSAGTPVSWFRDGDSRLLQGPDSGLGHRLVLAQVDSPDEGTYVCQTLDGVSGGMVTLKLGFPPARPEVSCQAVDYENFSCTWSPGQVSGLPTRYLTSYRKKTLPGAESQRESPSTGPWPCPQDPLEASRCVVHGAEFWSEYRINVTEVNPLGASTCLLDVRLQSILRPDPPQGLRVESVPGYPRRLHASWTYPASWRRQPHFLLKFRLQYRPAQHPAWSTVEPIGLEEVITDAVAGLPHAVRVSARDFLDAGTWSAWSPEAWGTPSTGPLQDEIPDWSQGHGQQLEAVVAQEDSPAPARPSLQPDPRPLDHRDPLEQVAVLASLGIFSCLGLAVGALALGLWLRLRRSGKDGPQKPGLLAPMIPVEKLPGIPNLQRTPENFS
Assay: radioligand binding; 10^6 cells in 40 ul RPMI-1640 or DME medium with 20 mM Hepes pH 7.4 and 10% FCS, overnight on ice with 1 x 10^5 cpm 125I-labelled IL-11 with or without a 100-fold excess of unlabelled IL-11; cell-associated and free ligand separated by centrifugation through FCS; only the binder purified

B1: 125I-labelled IL-11 (ligand, UniProt P47873 22-199)
chain: PGPPAGSPRVSSDPRADLDSAVLLTRSLLADTRQLAAQMRDKFPADGDHSLDSLPTLAMSAGTLGSLQLPGVLTRLRVDLMSYLRHVQWLRRAGGPSLKTLEPELGALQARLERLLRRLQLLMSRLALPQAAPDQPVIPLGPPASAWGSIRAAHAILGGLHLTLDWAVRGLLLLKTRL
modifications: 125I-labelled (radioiodinated)
  binding: no binding (tested: 1 x 105 cpm 125I-labelled IL-11)
